Compound in assay [1]: ClCC(=O)N[C@@H]1CCCc2ccccc12
As to the kind of experiment: log2 mean competition ratio of IA-DTB cysteine labelling (DMSO/compound) (log2 ratio); higher = stronger cysteine engagement by compound. As to conditions: treatment time: 4 h, cell line lysate: HEK293T. Here is the method:
(§1)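 IA-DTB competitive cysteine chemoproteomics in HEK293T RIPA lysate. Lysates were treated with compound 29 or 30 at 50 or 200 µM for 4 h, then IA-DTB (500 µM, 1 h), trypsin-digested, NeutrAvidin-enriched and analysed by diaPASEF. Competition ratio = intensity DMSO / intensity compound (n=4 treated, n=64 DMSO); binding: mean log2 CR ≥ 1 and p ≤ 0.05 plus QC filters. Target is the cysteine site.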

Sequences of proteins named here, by UniProt entry; tags and fusion partners are left off. A change or cut given only in a name is not applied to a line headed by its entry. Residues count along the entry.
UniProt Q96EA4: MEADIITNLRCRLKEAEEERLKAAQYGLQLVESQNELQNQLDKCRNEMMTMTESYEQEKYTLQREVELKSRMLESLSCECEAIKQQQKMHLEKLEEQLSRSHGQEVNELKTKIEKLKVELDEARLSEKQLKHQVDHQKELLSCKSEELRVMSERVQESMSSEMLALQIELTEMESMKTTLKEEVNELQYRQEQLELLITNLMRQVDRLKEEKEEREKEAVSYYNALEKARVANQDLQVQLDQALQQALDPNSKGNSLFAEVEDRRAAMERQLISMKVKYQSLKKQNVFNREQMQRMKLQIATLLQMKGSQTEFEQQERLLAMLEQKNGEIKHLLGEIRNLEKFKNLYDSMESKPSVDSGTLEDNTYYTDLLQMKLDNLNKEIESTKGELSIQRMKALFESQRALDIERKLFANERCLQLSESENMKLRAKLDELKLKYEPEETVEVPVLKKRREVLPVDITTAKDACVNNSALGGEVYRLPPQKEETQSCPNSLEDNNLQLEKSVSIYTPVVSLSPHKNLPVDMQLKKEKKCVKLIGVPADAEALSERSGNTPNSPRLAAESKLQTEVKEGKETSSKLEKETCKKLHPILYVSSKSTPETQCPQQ
UniProt Q6ZWJ1: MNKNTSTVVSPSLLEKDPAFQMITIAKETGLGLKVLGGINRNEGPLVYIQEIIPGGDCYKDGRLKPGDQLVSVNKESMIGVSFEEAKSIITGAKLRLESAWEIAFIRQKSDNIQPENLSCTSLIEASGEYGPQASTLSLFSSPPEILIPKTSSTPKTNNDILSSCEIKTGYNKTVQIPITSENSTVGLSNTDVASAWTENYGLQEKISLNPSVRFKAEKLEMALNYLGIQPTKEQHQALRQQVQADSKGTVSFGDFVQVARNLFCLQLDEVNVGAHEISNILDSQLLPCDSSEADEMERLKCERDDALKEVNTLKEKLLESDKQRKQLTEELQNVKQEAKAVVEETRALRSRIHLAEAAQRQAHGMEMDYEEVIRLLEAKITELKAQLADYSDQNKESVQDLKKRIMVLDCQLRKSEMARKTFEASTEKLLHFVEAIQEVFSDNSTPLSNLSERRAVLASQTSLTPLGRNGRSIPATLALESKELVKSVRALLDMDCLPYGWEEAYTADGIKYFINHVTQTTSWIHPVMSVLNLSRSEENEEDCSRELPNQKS
UniProt Q96T58, 1065-1087: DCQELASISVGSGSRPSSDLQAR
UniProt Q01082, whole entry, looked up: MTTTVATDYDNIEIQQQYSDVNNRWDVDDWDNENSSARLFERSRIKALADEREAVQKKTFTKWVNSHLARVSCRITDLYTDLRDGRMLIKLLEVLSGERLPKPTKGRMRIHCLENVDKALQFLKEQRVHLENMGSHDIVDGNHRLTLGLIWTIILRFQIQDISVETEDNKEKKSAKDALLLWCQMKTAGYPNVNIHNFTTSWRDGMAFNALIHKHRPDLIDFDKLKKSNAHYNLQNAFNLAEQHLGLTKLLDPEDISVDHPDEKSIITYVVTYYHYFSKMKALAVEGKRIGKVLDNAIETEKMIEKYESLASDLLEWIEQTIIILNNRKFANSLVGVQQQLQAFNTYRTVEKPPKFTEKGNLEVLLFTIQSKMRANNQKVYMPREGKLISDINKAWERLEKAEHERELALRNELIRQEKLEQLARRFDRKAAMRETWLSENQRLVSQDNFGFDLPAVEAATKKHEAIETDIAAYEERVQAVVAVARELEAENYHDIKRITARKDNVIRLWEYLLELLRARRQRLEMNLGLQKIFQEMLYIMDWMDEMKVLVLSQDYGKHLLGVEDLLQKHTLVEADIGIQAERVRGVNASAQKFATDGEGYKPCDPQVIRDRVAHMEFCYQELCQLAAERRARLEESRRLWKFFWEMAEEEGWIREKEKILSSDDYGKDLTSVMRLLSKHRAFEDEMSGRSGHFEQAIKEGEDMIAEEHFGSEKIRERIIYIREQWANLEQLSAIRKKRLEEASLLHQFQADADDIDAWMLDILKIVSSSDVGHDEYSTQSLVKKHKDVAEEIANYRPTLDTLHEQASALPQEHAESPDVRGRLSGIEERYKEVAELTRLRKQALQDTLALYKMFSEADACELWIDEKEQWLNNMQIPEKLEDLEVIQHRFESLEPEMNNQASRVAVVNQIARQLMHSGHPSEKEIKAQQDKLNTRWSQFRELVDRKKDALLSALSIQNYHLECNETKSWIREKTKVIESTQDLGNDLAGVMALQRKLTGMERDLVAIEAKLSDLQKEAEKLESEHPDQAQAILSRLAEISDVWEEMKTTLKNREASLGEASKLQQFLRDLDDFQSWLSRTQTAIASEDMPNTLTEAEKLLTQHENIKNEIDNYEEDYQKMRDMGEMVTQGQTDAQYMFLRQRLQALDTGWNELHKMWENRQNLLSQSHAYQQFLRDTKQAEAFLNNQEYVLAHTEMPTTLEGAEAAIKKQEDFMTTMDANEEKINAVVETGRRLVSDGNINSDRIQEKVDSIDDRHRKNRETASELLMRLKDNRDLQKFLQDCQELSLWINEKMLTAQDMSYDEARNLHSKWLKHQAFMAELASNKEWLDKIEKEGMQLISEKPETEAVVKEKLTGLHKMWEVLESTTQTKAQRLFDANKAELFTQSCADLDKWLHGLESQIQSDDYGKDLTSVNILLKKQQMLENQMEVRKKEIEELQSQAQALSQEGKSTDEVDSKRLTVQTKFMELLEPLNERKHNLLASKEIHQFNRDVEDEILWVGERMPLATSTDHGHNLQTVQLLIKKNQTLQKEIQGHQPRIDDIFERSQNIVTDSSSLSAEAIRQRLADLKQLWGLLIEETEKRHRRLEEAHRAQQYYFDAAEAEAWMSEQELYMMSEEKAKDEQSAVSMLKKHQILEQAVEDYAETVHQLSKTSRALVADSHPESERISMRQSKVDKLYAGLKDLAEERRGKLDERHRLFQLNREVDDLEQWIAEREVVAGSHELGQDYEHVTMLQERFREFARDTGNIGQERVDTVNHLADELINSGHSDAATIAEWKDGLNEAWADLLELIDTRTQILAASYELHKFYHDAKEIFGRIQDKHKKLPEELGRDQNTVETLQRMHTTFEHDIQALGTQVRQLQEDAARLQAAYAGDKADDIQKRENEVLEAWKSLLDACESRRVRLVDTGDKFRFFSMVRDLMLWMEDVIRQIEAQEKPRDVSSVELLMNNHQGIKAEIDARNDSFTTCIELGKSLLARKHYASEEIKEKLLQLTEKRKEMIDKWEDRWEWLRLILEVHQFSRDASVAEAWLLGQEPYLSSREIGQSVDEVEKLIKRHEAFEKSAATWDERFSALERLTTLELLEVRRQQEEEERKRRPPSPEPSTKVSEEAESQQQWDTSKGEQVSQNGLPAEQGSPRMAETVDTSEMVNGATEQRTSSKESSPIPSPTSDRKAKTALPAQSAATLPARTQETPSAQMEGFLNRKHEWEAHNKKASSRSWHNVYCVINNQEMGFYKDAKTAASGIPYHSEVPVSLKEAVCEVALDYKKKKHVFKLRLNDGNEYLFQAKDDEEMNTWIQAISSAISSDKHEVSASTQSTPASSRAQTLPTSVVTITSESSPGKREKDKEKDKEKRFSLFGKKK
UniProt Q68D10: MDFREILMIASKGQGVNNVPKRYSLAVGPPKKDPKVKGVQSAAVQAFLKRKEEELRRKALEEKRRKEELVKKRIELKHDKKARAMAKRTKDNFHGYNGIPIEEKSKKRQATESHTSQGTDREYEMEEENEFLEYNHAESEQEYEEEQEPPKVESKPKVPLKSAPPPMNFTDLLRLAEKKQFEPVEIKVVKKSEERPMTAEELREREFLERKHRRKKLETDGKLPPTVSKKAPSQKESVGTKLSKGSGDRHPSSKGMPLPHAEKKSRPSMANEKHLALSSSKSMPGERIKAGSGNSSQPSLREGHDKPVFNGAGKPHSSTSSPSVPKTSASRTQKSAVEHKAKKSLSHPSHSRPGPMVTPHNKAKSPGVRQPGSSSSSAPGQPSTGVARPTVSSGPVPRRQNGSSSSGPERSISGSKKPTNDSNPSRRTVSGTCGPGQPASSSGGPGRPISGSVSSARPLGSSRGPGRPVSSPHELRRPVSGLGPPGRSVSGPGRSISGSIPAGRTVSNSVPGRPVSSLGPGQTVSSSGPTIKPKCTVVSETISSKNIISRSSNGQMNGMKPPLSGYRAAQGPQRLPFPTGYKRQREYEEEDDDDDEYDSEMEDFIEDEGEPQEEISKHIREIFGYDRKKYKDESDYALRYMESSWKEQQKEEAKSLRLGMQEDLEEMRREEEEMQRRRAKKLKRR
UniProt Q9BVQ7, 694-715: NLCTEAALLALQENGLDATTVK
UniProt Q8NEM7: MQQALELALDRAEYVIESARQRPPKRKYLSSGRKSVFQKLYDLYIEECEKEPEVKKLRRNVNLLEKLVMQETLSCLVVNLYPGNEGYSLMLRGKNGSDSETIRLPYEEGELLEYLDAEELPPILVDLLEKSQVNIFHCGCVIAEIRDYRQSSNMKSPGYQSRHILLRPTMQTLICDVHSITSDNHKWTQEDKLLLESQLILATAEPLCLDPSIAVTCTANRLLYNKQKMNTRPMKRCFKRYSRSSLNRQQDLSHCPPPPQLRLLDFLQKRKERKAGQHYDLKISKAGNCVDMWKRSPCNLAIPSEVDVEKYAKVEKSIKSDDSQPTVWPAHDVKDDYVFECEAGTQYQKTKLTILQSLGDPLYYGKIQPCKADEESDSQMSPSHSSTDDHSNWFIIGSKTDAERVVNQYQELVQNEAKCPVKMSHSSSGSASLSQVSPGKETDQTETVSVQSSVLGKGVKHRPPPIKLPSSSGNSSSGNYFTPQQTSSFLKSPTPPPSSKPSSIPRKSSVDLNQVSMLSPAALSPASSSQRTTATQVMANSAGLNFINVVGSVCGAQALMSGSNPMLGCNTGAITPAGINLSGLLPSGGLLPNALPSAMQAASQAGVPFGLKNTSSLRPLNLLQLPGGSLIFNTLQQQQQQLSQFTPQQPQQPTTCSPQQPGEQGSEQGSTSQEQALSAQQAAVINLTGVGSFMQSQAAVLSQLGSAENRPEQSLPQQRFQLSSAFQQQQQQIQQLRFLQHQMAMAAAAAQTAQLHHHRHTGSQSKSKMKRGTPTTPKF
UniProt P49458: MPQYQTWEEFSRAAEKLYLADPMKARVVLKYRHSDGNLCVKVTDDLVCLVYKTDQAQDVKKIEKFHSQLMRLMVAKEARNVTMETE
UniProt Q5M775, 565-585: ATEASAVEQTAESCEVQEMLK
UniProt P40763, whole entry, looked up: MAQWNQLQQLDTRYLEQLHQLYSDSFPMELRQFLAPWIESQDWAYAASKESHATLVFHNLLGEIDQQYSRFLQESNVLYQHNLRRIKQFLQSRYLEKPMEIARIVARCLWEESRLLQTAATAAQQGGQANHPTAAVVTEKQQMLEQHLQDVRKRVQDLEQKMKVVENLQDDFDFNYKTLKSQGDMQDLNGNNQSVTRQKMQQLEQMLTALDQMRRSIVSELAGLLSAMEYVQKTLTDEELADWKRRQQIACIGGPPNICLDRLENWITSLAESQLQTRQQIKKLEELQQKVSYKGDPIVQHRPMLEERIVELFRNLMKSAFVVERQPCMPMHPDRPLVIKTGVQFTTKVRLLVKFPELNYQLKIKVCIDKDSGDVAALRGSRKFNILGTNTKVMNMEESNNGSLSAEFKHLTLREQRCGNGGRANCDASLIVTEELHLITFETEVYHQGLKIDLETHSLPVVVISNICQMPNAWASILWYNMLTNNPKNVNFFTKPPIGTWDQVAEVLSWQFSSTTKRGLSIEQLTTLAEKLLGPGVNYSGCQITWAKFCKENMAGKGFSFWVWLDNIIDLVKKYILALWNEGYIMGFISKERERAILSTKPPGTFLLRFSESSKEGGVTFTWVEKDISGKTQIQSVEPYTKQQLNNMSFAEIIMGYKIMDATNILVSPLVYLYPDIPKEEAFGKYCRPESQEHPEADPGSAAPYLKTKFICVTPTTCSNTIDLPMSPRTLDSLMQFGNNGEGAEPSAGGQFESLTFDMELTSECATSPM
UniProt Q15527: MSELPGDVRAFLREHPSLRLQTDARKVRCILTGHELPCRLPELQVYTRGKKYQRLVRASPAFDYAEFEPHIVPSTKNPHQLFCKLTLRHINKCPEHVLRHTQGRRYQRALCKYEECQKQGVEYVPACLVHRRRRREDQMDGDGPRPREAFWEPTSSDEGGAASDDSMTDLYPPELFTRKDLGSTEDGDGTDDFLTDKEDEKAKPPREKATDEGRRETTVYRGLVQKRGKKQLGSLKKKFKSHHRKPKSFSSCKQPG
UniProt Q9Y3F4: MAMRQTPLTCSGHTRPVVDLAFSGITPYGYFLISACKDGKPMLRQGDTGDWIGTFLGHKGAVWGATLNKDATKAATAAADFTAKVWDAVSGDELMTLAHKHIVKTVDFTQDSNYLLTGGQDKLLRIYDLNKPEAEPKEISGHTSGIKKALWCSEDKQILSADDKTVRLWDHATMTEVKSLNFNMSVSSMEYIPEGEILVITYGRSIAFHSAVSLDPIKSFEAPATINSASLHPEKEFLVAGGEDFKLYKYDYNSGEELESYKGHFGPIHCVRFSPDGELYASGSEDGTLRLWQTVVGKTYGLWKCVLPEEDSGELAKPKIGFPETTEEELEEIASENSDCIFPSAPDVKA

Compound in assay [2]: ClCC(=O)N[C@H]1CCCc2ccccc12
Described as above. The note with it: treatment time: 4 h, cell line lysate: HEK293T. Here is the method: as §1

Some of the results follow. The data scatter; read single values as rough.

For SYNE2 C2480 (UniProt Q8WXH0), the “log2 mean competition ratio” value was 0.0554 in assay [1] (50 µM), 0.0955 in assay [1] (200 µM), 0.0696 in assay [2] (50 µM) and -0.00476 in assay [2] (200 µM).

Regarding SPDL1 C467 (UniProt Q96EA4), the “log2 mean competition ratio” value in assay [1] (50 µM) turned out to be 0.351; in assay [1] (200 µM) it was 3.74e-05; in assay [2] (50 µM), 0.77; in assay [2] (200 µM), 0.0573.

SYMPK C686 (UniProt Q92797): the “log2 mean competition ratio” value in assay [1] (50 µM) was -0.149; in assay [1] (200 µM) it was 0.149; in assay [2] (50 µM), -0.319; in assay [2] (200 µM), 0.105.

Consider STXBP4 C165 (UniProt Q6ZWJ1), for which the “log2 mean competition ratio” value in assay [1] (50 µM) is -0.159; in assay [1] (200 µM) it was 0.0208; in assay [2] (50 µM), -0.23; in assay [2] (200 µM), 0.0624.

Take SRPK1 C502 (UniProt Q96SB4): the “log2 mean competition ratio” value in assay [1] (50 µM) was -0.0106; in assay [1] (200 µM), 0.23; in assay [2] (50 µM), -0.185; in assay [2] (200 µM), -0.0295.

For the target STIP1 C62, the “log2 mean competition ratio” value in assay [1] (50 µM) is -0.219; in assay [1] (200 µM), 0.101; in assay [2] (50 µM) it was -0.137; in assay [2] (200 µM), 0.243.

On to SPEN C1066 (UniProt Q96T58), for which the “log2 mean competition ratio” value in assay [1] (50 µM) is 0.106; in assay [1] (200 µM), -0.26; in assay [2] (50 µM) it was -0.319; in assay [2] (200 µM), -0.111.

For SPTBN1 C112 (UniProt Q01082), the “log2 mean competition ratio” value in assay [1] (50 µM) was 0.477; in assay [1] (200 µM), 0.0486; in assay [2] (50 µM), 0.662; in assay [2] (200 µM), -0.0652.

With SPTAN1 C2233 (UniProt Q13813), the “log2 mean competition ratio” value was -0.289 in assay [1] (50 µM), -0.0475 in assay [1] (200 µM), 0.14 in assay [2] (50 µM) and -0.385 in assay [2] (200 µM).

In the case of SPTY2D1 C535 (UniProt Q68D10), the “log2 mean competition ratio” value in assay [1] (50 µM) is 0.0334; in assay [1] (200 µM), -0.0631; in assay [2] (50 µM) it was -0.266; in assay [2] (200 µM), -0.0962.

In the case of SYNCRIP C96 (UniProt O60506), the “log2 mean competition ratio” value in assay [1] (50 µM) is 0.0255; in assay [1] (200 µM), -0.179; in assay [2] (50 µM), 0.0731; in assay [2] (200 µM), -0.0977.

For STX5 C68 (UniProt Q13190), the “log2 mean competition ratio” value worked out at 0.516 in assay [1] (50 µM), 0.48 in assay [1] (200 µM), 0.135 in assay [2] (50 µM) and 0.307 in assay [2] (200 µM).

STUB1 C199 (UniProt Q9UNE7): the “log2 mean competition ratio” value in assay [1] (50 µM) was -0.0801; in assay [1] (200 µM), -0.361; in assay [2] (50 µM), 0.636; in assay [2] (200 µM), -0.0529.

For SPTLC2 C19 (UniProt O15270), the “log2 mean competition ratio” value was -0.0889 in assay [1] (50 µM), 0.248 in assay [1] (200 µM), -0.0517 in assay [2] (50 µM) and 0.0547 in assay [2] (200 µM).

Take SUPT5H C429 (UniProt O00267): the “log2 mean competition ratio” value in assay [1] (50 µM) was -0.227; in assay [1] (200 µM) it was -0.879; in assay [2] (50 µM) it was 0.105; in assay [2] (200 µM) it was -0.316.

For SPATA5L1 C696 (UniProt Q9BVQ7), the “log2 mean competition ratio” value is -0.124 in assay [1] (50 µM), -0.23 in assay [1] (200 µM), -0.118 in assay [2] (50 µM) and -0.384 in assay [2] (200 µM).

SUPT3H C186 (UniProt O75486): the “log2 mean competition ratio” value is -0.21 in assay [1] (50 µM), -0.0845 in assay [1] (200 µM), 0.0323 in assay [2] (50 µM) and 0.0494 in assay [2] (200 µM).

For the target SUPT20H C48 (UniProt Q8NEM7), the “log2 mean competition ratio” value in assay [1] (50 µM) was -0.217; in assay [1] (200 µM) it was 0.157; in assay [2] (50 µM), -0.31; in assay [2] (200 µM) it was -0.128.

In the case of SUPT20H C289 (UniProt Q8NEM7), the “log2 mean competition ratio” value in assay [1] (50 µM) was 0.273; in assay [1] (200 µM), 0.421; in assay [2] (50 µM) it was -0.291; in assay [2] (200 µM), 0.338.

As for SRP9 C39 (UniProt P49458), the “log2 mean competition ratio” value in assay [1] (50 µM) was 0.0185; in assay [1] (200 µM) it was -0.155; in assay [2] (50 µM), -0.0572; in assay [2] (200 µM) it was -0.178.

SPECC1 C578 (UniProt Q5M775): the “log2 mean competition ratio” value in assay [1] (50 µM) was -0.113; in assay [1] (200 µM), -0.118; in assay [2] (50 µM) it was 0.121; in assay [2] (200 µM), -0.0886.

For the target STAT3 C108 (UniProt P40763), the “log2 mean competition ratio” value in assay [1] (50 µM) is -0.0597; in assay [1] (200 µM) it was 0.0152; in assay [2] (50 µM), -0.26; in assay [2] (200 µM), 0.141.

As to SURF2 C127 (UniProt Q15527), the “log2 mean competition ratio” value was -0.00113 in assay [1] (50 µM), 0.173 in assay [1] (200 µM), -0.202 in assay [2] (50 µM) and 0.0139 in assay [2] (200 µM).

Regarding STRAP C152 (UniProt Q9Y3F4), the “log2 mean competition ratio” value in assay [1] (50 µM) was -0.276; in assay [1] (200 µM), -0.149; in assay [2] (50 µM) it was -0.0419; in assay [2] (200 µM) it was 0.0487.

These data come from the supplement of paper PMC11732987, “Enantioselective OTUD7B fragment discovery through chemoproteomics screening and high-throughput optimisation” (Communications Chemistry, 2025).
